The experiment deals with T1, Biotinylated UvrD (E. coli) (UniProt P03018).
T1 sequence (chain, biotin): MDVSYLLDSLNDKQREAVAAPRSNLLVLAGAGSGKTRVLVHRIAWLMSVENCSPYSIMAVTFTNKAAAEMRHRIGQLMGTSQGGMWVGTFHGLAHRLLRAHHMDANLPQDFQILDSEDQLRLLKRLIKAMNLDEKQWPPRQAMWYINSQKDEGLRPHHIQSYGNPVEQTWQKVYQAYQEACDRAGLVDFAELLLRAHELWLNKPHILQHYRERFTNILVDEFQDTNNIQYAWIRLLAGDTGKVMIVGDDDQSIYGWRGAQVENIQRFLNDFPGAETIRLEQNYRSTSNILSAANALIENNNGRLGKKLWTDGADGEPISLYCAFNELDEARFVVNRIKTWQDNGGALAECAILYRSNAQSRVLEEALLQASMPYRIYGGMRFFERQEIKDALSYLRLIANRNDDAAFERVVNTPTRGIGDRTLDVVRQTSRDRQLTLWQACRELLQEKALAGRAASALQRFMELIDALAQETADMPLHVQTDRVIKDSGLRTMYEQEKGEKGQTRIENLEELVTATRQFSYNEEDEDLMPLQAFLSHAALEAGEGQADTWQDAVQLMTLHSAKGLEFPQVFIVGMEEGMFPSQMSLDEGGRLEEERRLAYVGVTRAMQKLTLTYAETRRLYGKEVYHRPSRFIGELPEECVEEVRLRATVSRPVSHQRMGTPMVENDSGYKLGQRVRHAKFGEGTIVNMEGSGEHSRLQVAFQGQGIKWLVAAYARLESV
In words: SPR.

Sequences of proteins named here, by UniProt entry; tags and fusion partners are left off.
UniProt P06710: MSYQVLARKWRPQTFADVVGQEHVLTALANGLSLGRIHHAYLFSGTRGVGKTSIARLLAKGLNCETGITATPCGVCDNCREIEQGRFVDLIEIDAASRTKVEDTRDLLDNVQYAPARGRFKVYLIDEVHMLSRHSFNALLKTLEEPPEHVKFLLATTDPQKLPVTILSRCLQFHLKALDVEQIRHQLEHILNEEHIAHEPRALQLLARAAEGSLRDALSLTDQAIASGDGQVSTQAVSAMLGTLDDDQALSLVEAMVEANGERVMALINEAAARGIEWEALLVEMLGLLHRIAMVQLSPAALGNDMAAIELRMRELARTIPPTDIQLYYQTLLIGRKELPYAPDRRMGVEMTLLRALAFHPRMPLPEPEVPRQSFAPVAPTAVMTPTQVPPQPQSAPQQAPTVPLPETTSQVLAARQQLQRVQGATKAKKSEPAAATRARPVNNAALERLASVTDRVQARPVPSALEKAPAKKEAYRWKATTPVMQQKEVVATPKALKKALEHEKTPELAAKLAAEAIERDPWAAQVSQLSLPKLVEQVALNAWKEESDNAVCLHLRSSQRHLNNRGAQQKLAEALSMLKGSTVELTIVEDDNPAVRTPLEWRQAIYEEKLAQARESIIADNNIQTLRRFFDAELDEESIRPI

No constants are given. Whether binding was seen depends on the method and setting.

On to Tau (from UniProt P06710 1-643), for which the binding result is listed as “no binding (tested: ca. 200-4000 nM)”.

Values taken from doi:10.1101/2021.02.22.432310.
